Laboratory results: patent US6995018
No constants are given. Whether binding was seen depends on the method and setting. Binding calls can cover weak binding; strength is not graded here.

By UniProt entry, the sequences of proteins in these tests, tags left out. Where a name states a change or a piece, a line headed by the entry shows the natural chain unless it says otherwise. Residues count along the entry.
UniProt P08603, residues 19-1231: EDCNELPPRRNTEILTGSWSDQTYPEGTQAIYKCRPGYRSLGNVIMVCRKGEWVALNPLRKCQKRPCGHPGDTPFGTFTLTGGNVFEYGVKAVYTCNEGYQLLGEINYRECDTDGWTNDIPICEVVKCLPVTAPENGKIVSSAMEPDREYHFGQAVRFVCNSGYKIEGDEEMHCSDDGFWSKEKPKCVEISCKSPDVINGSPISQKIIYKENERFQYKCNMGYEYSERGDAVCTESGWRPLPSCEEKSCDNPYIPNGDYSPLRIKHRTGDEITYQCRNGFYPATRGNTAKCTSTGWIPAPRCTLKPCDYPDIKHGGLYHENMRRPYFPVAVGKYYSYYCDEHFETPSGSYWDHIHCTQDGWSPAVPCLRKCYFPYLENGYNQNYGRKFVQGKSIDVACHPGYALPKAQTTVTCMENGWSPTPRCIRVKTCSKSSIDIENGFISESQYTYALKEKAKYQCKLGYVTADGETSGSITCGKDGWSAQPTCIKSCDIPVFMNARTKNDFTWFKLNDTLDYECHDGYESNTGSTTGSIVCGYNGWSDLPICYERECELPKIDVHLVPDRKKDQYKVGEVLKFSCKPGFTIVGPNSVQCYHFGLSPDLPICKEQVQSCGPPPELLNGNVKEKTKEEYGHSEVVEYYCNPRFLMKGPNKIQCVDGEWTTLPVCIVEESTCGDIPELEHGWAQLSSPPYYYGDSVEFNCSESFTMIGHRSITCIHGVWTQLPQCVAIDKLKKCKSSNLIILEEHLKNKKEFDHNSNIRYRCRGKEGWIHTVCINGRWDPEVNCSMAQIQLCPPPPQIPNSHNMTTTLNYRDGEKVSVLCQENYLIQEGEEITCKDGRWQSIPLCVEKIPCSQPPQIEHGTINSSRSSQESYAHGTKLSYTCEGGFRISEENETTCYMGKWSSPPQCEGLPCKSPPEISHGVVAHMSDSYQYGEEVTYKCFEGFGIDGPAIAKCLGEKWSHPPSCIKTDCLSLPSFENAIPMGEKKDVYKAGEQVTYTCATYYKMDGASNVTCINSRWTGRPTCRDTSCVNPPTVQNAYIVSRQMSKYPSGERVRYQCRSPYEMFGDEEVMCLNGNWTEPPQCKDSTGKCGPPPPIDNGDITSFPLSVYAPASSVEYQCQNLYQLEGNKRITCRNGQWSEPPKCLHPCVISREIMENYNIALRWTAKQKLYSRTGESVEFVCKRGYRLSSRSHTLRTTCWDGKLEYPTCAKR
UniProt P10451: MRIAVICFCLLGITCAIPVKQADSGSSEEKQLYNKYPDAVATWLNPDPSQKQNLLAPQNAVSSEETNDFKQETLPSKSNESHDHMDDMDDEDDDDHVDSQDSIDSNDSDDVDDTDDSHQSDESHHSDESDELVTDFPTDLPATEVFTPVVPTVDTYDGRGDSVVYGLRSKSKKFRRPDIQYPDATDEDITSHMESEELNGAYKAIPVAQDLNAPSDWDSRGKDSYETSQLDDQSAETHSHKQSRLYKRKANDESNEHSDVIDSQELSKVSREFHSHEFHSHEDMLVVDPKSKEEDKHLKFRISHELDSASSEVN

Assays:
[1] = target: human complement Factor H (human) (UniProt P08603); test: steady state tryptophan fluorescence quenching, titration of Factor H
[2] = target: human complement Factor H (human) (UniProt P08603); test: summary of the experiments of section II
[3] = target: human complement Factor H (human) (UniProt P08603); test: steady state fluorescence, titration of purified human Factor H with rOPN

Measured: binding

recombinant osteopontin (rOPN) (from UniProt P10451) (ligand)
binds: [1] | [2] | [3]
